We go through four molecules from PMC11858971.

These are yes or no findings as the source states them, for the method shown. A result given as binding can be weak or reduced; the word gives no strength. For some of these results: Binding seen in cells or lysates may run through a third protein. For some of these results: Tags and fused reporters may be left off the sequences shown.

For test [1], the target named is T1, PIL15-cCFP (rice (Oryza sativa)) (UniProt Q0JNI9).
T1 sequence: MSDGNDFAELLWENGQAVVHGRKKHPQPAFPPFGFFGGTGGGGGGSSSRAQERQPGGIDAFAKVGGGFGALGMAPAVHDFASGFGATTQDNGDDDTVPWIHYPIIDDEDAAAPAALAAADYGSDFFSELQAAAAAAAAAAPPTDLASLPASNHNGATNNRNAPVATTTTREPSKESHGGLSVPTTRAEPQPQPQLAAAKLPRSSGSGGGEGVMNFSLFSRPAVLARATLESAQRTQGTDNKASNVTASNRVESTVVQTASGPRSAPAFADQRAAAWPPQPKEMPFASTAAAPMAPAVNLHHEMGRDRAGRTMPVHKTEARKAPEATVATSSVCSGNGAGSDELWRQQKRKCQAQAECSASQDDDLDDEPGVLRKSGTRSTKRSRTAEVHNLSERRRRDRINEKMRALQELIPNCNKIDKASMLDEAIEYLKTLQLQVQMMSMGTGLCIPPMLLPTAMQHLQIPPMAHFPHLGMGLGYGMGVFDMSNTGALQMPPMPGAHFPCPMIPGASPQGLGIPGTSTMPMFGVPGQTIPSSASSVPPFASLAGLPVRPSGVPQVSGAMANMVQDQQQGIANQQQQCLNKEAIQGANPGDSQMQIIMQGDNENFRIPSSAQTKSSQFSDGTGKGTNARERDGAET
Nature of the test: split reporter; BiFC with nYFP and cCFP fusions co-expressed in N. benthamiana leaves by Agrobacterium GV3101; fluorescence seen 48 h after injection, H2B-RFP as nuclear marker.

Test [2] concerns the target T2, PIL15-3xFlag (rice (Oryza sativa)) (UniProt Q0JNI9).
T2 sequence: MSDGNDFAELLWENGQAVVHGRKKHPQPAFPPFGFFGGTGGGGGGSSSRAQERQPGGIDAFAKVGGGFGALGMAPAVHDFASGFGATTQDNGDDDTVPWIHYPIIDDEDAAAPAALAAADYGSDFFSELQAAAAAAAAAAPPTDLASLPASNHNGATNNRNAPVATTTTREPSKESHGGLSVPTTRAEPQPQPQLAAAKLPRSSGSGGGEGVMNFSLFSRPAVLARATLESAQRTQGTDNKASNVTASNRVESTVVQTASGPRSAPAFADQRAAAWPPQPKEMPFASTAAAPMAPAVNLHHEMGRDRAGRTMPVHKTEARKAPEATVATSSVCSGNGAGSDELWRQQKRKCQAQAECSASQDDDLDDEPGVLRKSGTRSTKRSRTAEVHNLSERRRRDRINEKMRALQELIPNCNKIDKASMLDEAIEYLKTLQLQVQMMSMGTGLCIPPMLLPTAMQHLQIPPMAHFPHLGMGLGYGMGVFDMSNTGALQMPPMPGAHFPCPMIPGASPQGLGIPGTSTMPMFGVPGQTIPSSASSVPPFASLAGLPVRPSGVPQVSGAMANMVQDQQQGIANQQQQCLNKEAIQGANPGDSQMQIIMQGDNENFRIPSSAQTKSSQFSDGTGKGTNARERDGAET
Nature of the test: co-IP; 3xFlag and GFP fusions co-expressed in N. benthamiana leaves by co-infiltration (GV3101), leaves 2 days in the dark; immunoprecipitation with anti-Flag antibody, Western blot. A general note: In western blotting, separated proteins are transferred to a membrane and probed.

The target in test [3] is pGBT9-WRKY36 (rice (Oryza sativa)) (UniProt Q6IEP5). Nature of the test: two-hybrid; pGAD424 fusions in AH109 mated with pGBT9 fusions in Y187; diploids on SD/-Leu-Trp, -His or -Leu-Trp-His with various concentrations of 3-AT.
The target of test [4] is pGBT9-AOS2 (Rhizoctonia solani). The test is described as above.
Test [5] has as its target pGBT9-WRKY53 (rice (Oryza sativa)). The test is described as above.
Test [6] concerns the target WRKY36–cCFP (rice (Oryza sativa)). Nature of the test: split reporter; BiFC with nYFP and cCFP fusions co-expressed in N. benthamiana leaves by Agrobacterium GV3101; fluorescence seen 48 h after injection, H2B-RFP as nuclear marker.
Test [7] has as its target WRKY53–cCFP (rice (Oryza sativa)). The description is as above.

As for AOS2-nYFP (Rhizoctonia solani), the binding result in test [1] is “binds”.

On to WRKY36–GFP (rice (Oryza sativa)), for which the binding result in test [2] is “binds”.

B1: pGAD424-PIL15 (protein, UniProt Q0JNI9 1-637)
chain: MSDGNDFAELLWENGQAVVHGRKKHPQPAFPPFGFFGGTGGGGGGSSSRAQERQPGGIDAFAKVGGGFGALGMAPAVHDFASGFGATTQDNGDDDTVPWIHYPIIDDEDAAAPAALAAADYGSDFFSELQAAAAAAAAAAPPTDLASLPASNHNGATNNRNAPVATTTTREPSKESHGGLSVPTTRAEPQPQPQLAAAKLPRSSGSGGGEGVMNFSLFSRPAVLARATLESAQRTQGTDNKASNVTASNRVESTVVQTASGPRSAPAFADQRAAAWPPQPKEMPFASTAAAPMAPAVNLHHEMGRDRAGRTMPVHKTEARKAPEATVATSSVCSGNGAGSDELWRQQKRKCQAQAECSASQDDDLDDEPGVLRKSGTRSTKRSRTAEVHNLSERRRRDRINEKMRALQELIPNCNKIDKASMLDEAIEYLKTLQLQVQMMSMGTGLCIPPMLLPTAMQHLQIPPMAHFPHLGMGLGYGMGVFDMSNTGALQMPPMPGAHFPCPMIPGASPQGLGIPGTSTMPMFGVPGQTIPSSASSVPPFASLAGLPVRPSGVPQVSGAMANMVQDQQQGIANQQQQCLNKEAIQGANPGDSQMQIIMQGDNENFRIPSSAQTKSSQFSDGTGKGTNARERDGAET
For B1, the binding entry in test [3], in test [4] and in test [5] was “binds” each time.

B2: PIL15-nYFP (protein, UniProt Q0JNI9 1-637)
chain: MSDGNDFAELLWENGQAVVHGRKKHPQPAFPPFGFFGGTGGGGGGSSSRAQERQPGGIDAFAKVGGGFGALGMAPAVHDFASGFGATTQDNGDDDTVPWIHYPIIDDEDAAAPAALAAADYGSDFFSELQAAAAAAAAAAPPTDLASLPASNHNGATNNRNAPVATTTTREPSKESHGGLSVPTTRAEPQPQPQLAAAKLPRSSGSGGGEGVMNFSLFSRPAVLARATLESAQRTQGTDNKASNVTASNRVESTVVQTASGPRSAPAFADQRAAAWPPQPKEMPFASTAAAPMAPAVNLHHEMGRDRAGRTMPVHKTEARKAPEATVATSSVCSGNGAGSDELWRQQKRKCQAQAECSASQDDDLDDEPGVLRKSGTRSTKRSRTAEVHNLSERRRRDRINEKMRALQELIPNCNKIDKASMLDEAIEYLKTLQLQVQMMSMGTGLCIPPMLLPTAMQHLQIPPMAHFPHLGMGLGYGMGVFDMSNTGALQMPPMPGAHFPCPMIPGASPQGLGIPGTSTMPMFGVPGQTIPSSASSVPPFASLAGLPVRPSGVPQVSGAMANMVQDQQQGIANQQQQCLNKEAIQGANPGDSQMQIIMQGDNENFRIPSSAQTKSSQFSDGTGKGTNARERDGAET
Regarding B2, the binding result in test [6] and in test [7] was “binds” throughout.
